Experimental data published in paper PMC7819943, “Rice protein-binding microarrays: a tool to detect cis-acting elements near promoter regions in rice”.
Some of the results follow.

The chains behind the UniProt entries cited, without tags or fusion partners.
UniProt Q0JBA9, entry or part of it: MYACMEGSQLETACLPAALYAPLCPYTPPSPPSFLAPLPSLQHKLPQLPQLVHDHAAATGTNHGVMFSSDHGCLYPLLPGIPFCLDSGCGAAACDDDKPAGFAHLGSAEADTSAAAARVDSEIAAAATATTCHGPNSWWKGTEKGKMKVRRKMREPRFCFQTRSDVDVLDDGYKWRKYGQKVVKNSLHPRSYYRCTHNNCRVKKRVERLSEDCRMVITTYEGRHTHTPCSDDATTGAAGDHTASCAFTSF

molecular target: OsWRKY34 (Oryza sativa, UniProt Q0JBA9 1-250); assay: protein-binding microarray (RPBM); PBS, 2% BSA, 51.3 ng/ul salmon testes DNA, 50 uM zinc acetate, 200 nM TF, 25 C, 1 h; high values mean tight binding; details: protein: recombinant; tags: N-terminal polyhistidine and DsRed monomer fusion (pET32a); label: CyDye5-dUTP incorporated in the synthesized complementary strand; 3' TTTTT single-stranded linker to array surface; dsDNA, one strand shown
Summary of the method: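 Using Ni–NTA, transcription factors fused N-terminally to polyhistidine and DsRed were purified after expression in E. coli BL21-CodonPlus. These were incubated at 200 nM with a blocked, double-stranded custom Agilent array for 1 h at 25 °C in a buffer containing 50 µM zinc acetate, and the array was washed. The binding signal is per-feature fluorescence intensity (arbitrary units) on an Axon 4000B scanner.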

Sequence	binding signal
TTGTTCTTTTTCCTATATATTGTTGTTCCTTTTCATGCTTCGGAGTCACCTAGTGCAG	9230 fluorescence intensity (a.u.)
TGGCGTTCTGCTGTACAGGCTCATGTATTACTGCATTTCACGGAGTCACCTAGTGCAG	9850 fluorescence intensity (a.u.)
TATTACAATCACTTCTGTTATTATATTCAGTCTTCTATTTCGGAGTCACCTAGTGCAG	9110 fluorescence intensity (a.u.)
TGCAGTCGTCGTCCACCTCCGCCGCCTCTTCGCCACCATCCGGAGTCACCTAGTGCAG	9850 fluorescence intensity (a.u.)
GATTCTTTGCCTGTTCAATCGACCGTGCTTTGTGAGAGCACGGAGTCACCTAGTGCAG	9370 fluorescence intensity (a.u.)
TACTCGTTTGGTTGTAATTTTTTTCCGCGTCTTTTCATCTCGGAGTCACCTAGTGCAG	11200 fluorescence intensity (a.u.)
GTGTGTCTGGTCTCTCCTGGTGTTGGTTGCCACACGTATACGGAGTCACCTAGTGCAG	8360 fluorescence intensity (a.u.)
CTACTAGTACAGGCTATATCGCTTACTCCCTTTGTCCTAACGGAGTCACCTAGTGCAG	8420 fluorescence intensity (a.u.)
ACGGGACGGATGATGGGGTTGGCTGGTGAAAACGGATGGACGGAGTCACCTAGTGCAG	9610 fluorescence intensity (a.u.)
GCCCAGCCCACCCACCGACAGCCGCTTCGCCATTTCCGCTCGGAGTCACCTAGTGCAG	8260 fluorescence intensity (a.u.)
TACTTTTCATCACTGGTCATACACTAAAACCATCATTAAACGGAGTCACCTAGTGCAG	8440 fluorescence intensity (a.u.)
AGCTGATTATTGCTTGATACCTAAGCTTTGCTTGCTTTCACGGAGTCACCTAGTGCAG	8580 fluorescence intensity (a.u.)
GCGCTTCTGACCACCACGTGCATTTCCATTTCCCGCTGCACGGAGTCACCTAGTGCAG	12700 fluorescence intensity (a.u.)
TAGTACTCCACTTGCCCCAGTAGTAACTGCCTGGAAACTTCGGAGTCACCTAGTGCAG	8590 fluorescence intensity (a.u.)
GCTCGCTGCTTCGCTTGCTCGCGGGCCTCGCGGCCACATCCGGAGTCACCTAGTGCAG	9100 fluorescence intensity (a.u.)
ATTGTCATACGATCATCACCACTTTGCCAATTTGCCAGCTCGGAGTCACCTAGTGCAG	9180 fluorescence intensity (a.u.)
CCGCCGATCTCCATCTCCGCCGCCGTCCTGCTGCTTCCGCCGGAGTCACCTAGTGCAG	8460 fluorescence intensity (a.u.)
TCCTCCACCGTCCGCCGCTCACTCACTCAGGGCCTCAGGCCGGAGTCACCTAGTGCAG	9350 fluorescence intensity (a.u.)
GCTAATTATTCTTTCAGTTATAGGCATCGTACCCGTCGACCGGAGTCACCTAGTGCAG	10700 fluorescence intensity (a.u.)
CTTCACTATGTTTCAGAGATACCATTTCACCCAGTCCAATCGGAGTCACCTAGTGCAG	8030 fluorescence intensity (a.u.)
GGCAGCTCGATCTTTAGTCCCGGTTATTTCATCCGGGACTCGGAGTCACCTAGTGCAG	8660 fluorescence intensity (a.u.)

Sequence	binding signal
GCTCATTACCTCGTTTACGAATTCTTCCCCATTTCCTTTGCGGAGTCACCTAGTGCAG	10000 fluorescence intensity (a.u.)
TTCTAAATAATATTTGACGCCGTTGACTTTTTTAAATATACGGAGTCACCTAGTGCAG	14600 fluorescence intensity (a.u.)
ACTCTACATTTAATTTTTATAGGCTTTTTTTATAATTATTCGGAGTCACCTAGTGCAG	8070 fluorescence intensity (a.u.)
TCGATCTCACTGTGGGTGGGCACTGTAGCTAGTGGTCTTGCGGAGTCACCTAGTGCAG	9460 fluorescence intensity (a.u.)
CAGTGGATGGGCTTTCTTCGTTTCTGCAATGAGGTCATGTCGGAGTCACCTAGTGCAG	9920 fluorescence intensity (a.u.)
GTCCCGGGCACCGACCACGATCCGTTCCCGCCACACAAACCGGAGTCACCTAGTGCAG	8080 fluorescence intensity (a.u.)
TGTGCTAAAAAGTCAACGGTGTCAAACATTTTGAAACGGACGGAGTCACCTAGTGCAG	10600 fluorescence intensity (a.u.)
GTTCCAGATGTCCTGCCCCTTGATCTCCTCCGGCGTCGGCCGGAGTCACCTAGTGCAG	9510 fluorescence intensity (a.u.)
ACTAGTTTGTTCCAACGTACTCCCGCTTCCATCTAATCGCCGGAGTCACCTAGTGCAG	9340 fluorescence intensity (a.u.)
TGTAGGGTGCGGTCGTTTTGAGCTTATAGGATTAGATTCTCGGAGTCACCTAGTGCAG	10200 fluorescence intensity (a.u.)
TCCCACCCGCTGCCACCAAAACCCTCCCCGCGCCCGGTCCCGGAGTCACCTAGTGCAG	10500 fluorescence intensity (a.u.)
GCATGCTCTGGCCGCTGCTCGTCTCGCTCAGCCAGCCGCTCGGAGTCACCTAGTGCAG	8180 fluorescence intensity (a.u.)
TAAGTGATCTGTGCGTTGCAATATATACCGATTATACCATCGGAGTCACCTAGTGCAG	9080 fluorescence intensity (a.u.)
CTTCATCTGAATTTTGTCTCTTGGACTCTTTTCTCCATCTCGGAGTCACCTAGTGCAG	9960 fluorescence intensity (a.u.)
ATGTGTGAGTGCAACTTCCCTCCTTTTTTTTCAGTATCTTCGGAGTCACCTAGTGCAG	10500 fluorescence intensity (a.u.)
GCTTGCTTTGTCACATGCAGTTTTACACCTTTTATTTCTCCGGAGTCACCTAGTGCAG	10400 fluorescence intensity (a.u.)
ATGCTCTACTAACTCGTTGACCGATTACTATGAATGAACTCGGAGTCACCTAGTGCAG	10900 fluorescence intensity (a.u.)
GTGCCATGCCATACTTTACCTATCATGTTTGCTGTCTGATCGGAGTCACCTAGTGCAG	8180 fluorescence intensity (a.u.)
CCCAGGCCCATCTCAGCCCAGCCCAGCCCGCAATCATCATCGGAGTCACCTAGTGCAG	9140 fluorescence intensity (a.u.)
GATAGTGTCCCACGCATGCGTCCACGAGTCCTCGACGCAACGGAGTCACCTAGTGCAG	9120 fluorescence intensity (a.u.)
TCCAAGTCTTCCGCCTTCGTTGGCCCCACCAGTCAGTGACCGGAGTCACCTAGTGCAG	9050 fluorescence intensity (a.u.)

Sequence	binding signal
ATGTTTGCTTCCAGACTAATATTTCTTTGGAATCTACTCCCGGAGTCACCTAGTGCAG	8180 fluorescence intensity (a.u.)
ATATTTATTAGTTGGCGTGTATGTAAAACTTGTGTGTTTCCGGAGTCACCTAGTGCAG	8400 fluorescence intensity (a.u.)
TAAAGGGAGGAGGGGAGATGGGCAGTGGCGGCTAGGGTTTCGGAGTCACCTAGTGCAG	8730 fluorescence intensity (a.u.)
GATCTCGAATTCTCTCGTCTCCAATCGCTGCAGATTTCCACGGAGTCACCTAGTGCAG	16200 fluorescence intensity (a.u.)
ACCTGGCCGAGTTCCTGAAGATATCGTGATTATTACTCACCGGAGTCACCTAGTGCAG	8260 fluorescence intensity (a.u.)
ATTATTTTCCTATCATTTGATTCATTGTTAAATATACTTTCGGAGTCACCTAGTGCAG	8840 fluorescence intensity (a.u.)
CTCTCTGCCTCTTGCAGATGCTGTTGCTCTCACCCTGACACGGAGTCACCTAGTGCAG	9250 fluorescence intensity (a.u.)
TCGAGGGAAGGGGATTGGGAGTTTACACGAGGGAATTGATCGGAGTCACCTAGTGCAG	12300 fluorescence intensity (a.u.)
TCCATCGCAGCCGCTCCAGCCAACGCCGCAGTACTTGCCACGGAGTCACCTAGTGCAG	8360 fluorescence intensity (a.u.)
TATTCGGCTTTCGCGTCGCTGTCCGCCTCCATCGCCGCCGCGGAGTCACCTAGTGCAG	9360 fluorescence intensity (a.u.)
ACGAGTTGACGACGACCCACTTGCGGCCACTTTCCTTCACCGGAGTCACCTAGTGCAG	10300 fluorescence intensity (a.u.)
GCCGGATCATCCTCTTCCCTGCTGCCAATGGCGGCCGCCGCGGAGTCACCTAGTGCAG	8740 fluorescence intensity (a.u.)
CATCTCCATTGATCACCTTGTTGTCTCAGCTGCATTATCCCGGAGTCACCTAGTGCAG	8130 fluorescence intensity (a.u.)
GATGTGTGGGGTGTAGGTGTGATCGATCGAGGGACGACAACGGAGTCACCTAGTGCAG	9030 fluorescence intensity (a.u.)
AACAAGACGAATGGTCAAACATGTTTAAAAAAGTCAACGGCGGAGTCACCTAGTGCAG	15700 fluorescence intensity (a.u.)
AGGTACGCACGCGCGGTGGAGGAGGAGGAGGAGGAGGAGGCGGAGTCACCTAGTGCAG	10900 fluorescence intensity (a.u.)
ATGGTCCTTGATGCTTCTTGTACTTAATTTCTTTTAAATTCGGAGTCACCTAGTGCAG	8610 fluorescence intensity (a.u.)
TGGGGATGTGTTGTGGTGAGCTGGAAAGTGCAAACTGGTTCGGAGTCACCTAGTGCAG	9630 fluorescence intensity (a.u.)
ACTGTTTCACCACACTCGTGTTTTTTTACTGTTTCACTTACGGAGTCACCTAGTGCAG	11100 fluorescence intensity (a.u.)
TCCTCAAAGCATCATCAGGTCCATTTCATTTGCACATCCACGGAGTCACCTAGTGCAG	8180 fluorescence intensity (a.u.)
GTCAGTCACACTTGCAATAGGTTCTCATCACCTGTCTCAACGGAGTCACCTAGTGCAG	8780 fluorescence intensity (a.u.)

An excerpt of these results, field by field.
TCCCACCCGCTGCCACCAAAACCCTCCCCGCGCCCGGTCCCGGAGTCACCTAGTGCAG
  binding signal: 10500 fluorescence intensity (a.u.)
TAAGTGATCTGTGCGTTGCAATATATACCGATTATACCATCGGAGTCACCTAGTGCAG
  binding signal: 9080 fluorescence intensity (a.u.)

(cont.)

Sequence	binding signal
CTTTATAAATCATTCGAATACGAGTCTCATAACATTTTTACGGAGTCACCTAGTGCAG	10100 fluorescence intensity (a.u.)
GTATTTTTCCTGTGTTTTGCAATCCTTTGTTTTACACTTACGGAGTCACCTAGTGCAG	8660 fluorescence intensity (a.u.)
CGACACGCCGCCTCCACCTGTATCCCTCAATCACCGATTCCGGAGTCACCTAGTGCAG	8210 fluorescence intensity (a.u.)
ATCCGCCCTACTACATCCGTGCACCATCTTTCCCTTTCAGCGGAGTCACCTAGTGCAG	8840 fluorescence intensity (a.u.)
TGCTGCTACTACATGTGGTGTGGGTGGTATGGTAGGGCCCCGGAGTCACCTAGTGCAG	9060 fluorescence intensity (a.u.)
ACTATCTGTGTTGTTGAGTTCTTGCGCGTGCGTGCGTCACCGGAGTCACCTAGTGCAG	8260 fluorescence intensity (a.u.)
ACCATGGACCGTTGGCCACTGGAGCATTCTACCATGGTCTCGGAGTCACCTAGTGCAG	8480 fluorescence intensity (a.u.)
GTGTGCTGTGTGTGGTCTGAGATGATGTGTACTGCTGCTACGGAGTCACCTAGTGCAG	9510 fluorescence intensity (a.u.)
GTTTTGTTTTGTAACTTTTGATTGCTTACGTTTTTTCTCTCGGAGTCACCTAGTGCAG	8620 fluorescence intensity (a.u.)
TGGTTCCGCTGCTGCTGTTGTTGTTGGTGTTTCCTCGTCCCGGAGTCACCTAGTGCAG	9340 fluorescence intensity (a.u.)
GGTAGACGGCGTCGTACCCGTCCTCCTCGCCGGACCGCATCGGAGTCACCTAGTGCAG	8840 fluorescence intensity (a.u.)
GGCTGAGCTAATTTCGCCTTGCTTTGGTTTTTGTTTTTAGCGGAGTCACCTAGTGCAG	12600 fluorescence intensity (a.u.)
CTCGCAAGCCATGCTCTCGTCACACTCGCCGCTGCCGCTCCGGAGTCACCTAGTGCAG	9850 fluorescence intensity (a.u.)
CGGAGGGTAGAGTGCGTCATTGCGAACCTTTGGGGATTAACGGAGTCACCTAGTGCAG	9240 fluorescence intensity (a.u.)
CTAGCCGGTCAGACCGCCCACACACCTGTGGTCTGACCGGCGGAGTCACCTAGTGCAG	9500 fluorescence intensity (a.u.)
TCATATCATTACTTGTACGTTTATACCTTGTGTTACTTTTCGGAGTCACCTAGTGCAG	8490 fluorescence intensity (a.u.)
CGTTGCCTCGCCTAAACCCATCACCCCACGCCACCACCTCCGGAGTCACCTAGTGCAG	11200 fluorescence intensity (a.u.)
TGGTGTTGTTCAGTCCGACTTCTCAAAATCGCGAAATTCTCGGAGTCACCTAGTGCAG	10300 fluorescence intensity (a.u.)
TATCCTCTAGAGCTACATTTTCTCTCACCACACGCTATTTCGGAGTCACCTAGTGCAG	10400 fluorescence intensity (a.u.)
GCCGCCGCCACAAACCTCCGCCCGTTTCGCCCTGATCTCTCGGAGTCACCTAGTGCAG	11100 fluorescence intensity (a.u.)
GTCGCAATCACCGAAGCGCACCTCGATCTCGGTCCAATCTCGGAGTCACCTAGTGCAG	9170 fluorescence intensity (a.u.)

As a short view, some entries already given.
Sequence	binding signal
CGGAGGGTAGAGTGCGTCATTGCGAACCTTTGGGGATTAACGGAGTCACCTAGTGCAG	9240 fluorescence intensity (a.u.)
CTAGCCGGTCAGACCGCCCACACACCTGTGGTCTGACCGGCGGAGTCACCTAGTGCAG	9500 fluorescence intensity (a.u.)
TCATATCATTACTTGTACGTTTATACCTTGTGTTACTTTTCGGAGTCACCTAGTGCAG	8490 fluorescence intensity (a.u.)
CGTTGCCTCGCCTAAACCCATCACCCCACGCCACCACCTCCGGAGTCACCTAGTGCAG	11200 fluorescence intensity (a.u.)
